Source: article doi:10.1101/2024.03.24.586400 (bioRxiv, 2024)

By UniProt entry, the sequences of proteins in these tests, tags left out.
UniProt Q13838: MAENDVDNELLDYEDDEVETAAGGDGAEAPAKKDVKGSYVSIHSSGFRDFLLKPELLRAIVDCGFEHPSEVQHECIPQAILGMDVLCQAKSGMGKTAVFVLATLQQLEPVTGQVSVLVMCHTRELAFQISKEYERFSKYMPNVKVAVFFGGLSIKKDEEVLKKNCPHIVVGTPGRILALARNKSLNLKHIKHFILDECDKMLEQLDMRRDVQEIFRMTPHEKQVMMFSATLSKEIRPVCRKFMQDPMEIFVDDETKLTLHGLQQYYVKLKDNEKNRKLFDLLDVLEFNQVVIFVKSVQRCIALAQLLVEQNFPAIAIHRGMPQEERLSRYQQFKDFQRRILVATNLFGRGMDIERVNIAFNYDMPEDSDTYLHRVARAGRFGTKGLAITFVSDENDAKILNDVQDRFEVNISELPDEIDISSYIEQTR
UniProt Q9H814: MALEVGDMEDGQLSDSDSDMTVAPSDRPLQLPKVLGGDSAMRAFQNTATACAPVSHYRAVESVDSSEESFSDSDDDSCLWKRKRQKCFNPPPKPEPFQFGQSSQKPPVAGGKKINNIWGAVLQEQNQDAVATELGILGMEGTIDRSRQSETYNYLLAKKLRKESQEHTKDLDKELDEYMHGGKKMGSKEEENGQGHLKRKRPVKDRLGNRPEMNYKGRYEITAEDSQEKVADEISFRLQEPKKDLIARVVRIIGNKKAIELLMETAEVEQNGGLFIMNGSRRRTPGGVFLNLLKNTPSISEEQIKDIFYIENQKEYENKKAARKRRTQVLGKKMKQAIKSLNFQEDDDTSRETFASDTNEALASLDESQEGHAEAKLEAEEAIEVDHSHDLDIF

biological target: GFP-UAP56 (endogenously tagged EGFP-3C-DDX39B) (human (endogenous in K562)) (UniProt Q13838); experiment: affinity purification with mass spectrometry

Row | binding | Molecule
1 | binds | NCBP3 (endogenous) (protein, UniProt Q53F19 1-620) MAAVRGLRVSVKAEAPAGPALGLPSPEAESGVDRGEPEPMEVEEGELEIVPVRRSLKELIPDTSRRYENKAGSFITGIDVTSKEAIEKKEQRAKRFHFRSEVNLAQRNVALDRDMMKKAIPKVRLETIYICGVDEMSTQDVFSYFKEYPPAHIEWLDDTSCNVVWLDEMTATRALINMSSLPAQDKIRSRDASEDKSAEKRKKDKQEDSSDDDEAEEGEVEDENSSDVELDTLSQVEEESLLRNDLRPANKLAKGNRLFMRFATKDDKKELGAARRSQYYMKYGNPNYGGMKGILSNSWKRRYHSRRIQRDVIKKRALIGDDVGLTSYKHRHSGLVNVPEEPIEEEEEEEEEEEEEEEEDQDMDADDRVVVEYHEELPALKQPRERSASRRSSASSSDSDEMDYDLELKMISTPSPKKSMKMTMYADEVESQLKNIRNSMRADSVSSSNIKNRIGNKLPPEKFADVRHLLDEKRQHSRPRPPVSSTKSDIRQRLGKRPHSPEKAFSSNPVVRREPSSDVHSRLGVPRQDSKGLYADTREKKSGNLWTRLGSAPKTKEKNTKKVDHRAPGAEEDDSELQRAWGALIKEKEQSRQKKSRLDNLPSLQIEVSRESSSGSEAES
2 | binds | UIF (endogenous) (protein, UniProt Q96QD9 1-318) MNRFGTRLVGATATSSPPPKARSNENLDKIDMSLDDIIKLNRKEGKKQNFPRLNRRLLQQSGAQQFRMRVRWGIQQNSGFGKTSLNRRGRVMPGKRRPNGVITGLAARKTTGIRKGISPMNRPPLSDKNIEQYFPVLKRKANLLRQNEGQRKPVAVLKRPSQLSRKNNIPANFTRSGNKLNHQKDTRQATFLFRRGLKVQAQLNTEQLLDDVVAKRTRQWRTSTTNGGILTVSIDNPGAVQCPVTQKPRLTRTAVPSFLTKREQSDVKKVPKGVPLQFDINSVGKQTGMTLNERFGILKEQRATLTYNKGGSRFVTVG
3 | binds | RBM27 (endogenous) (protein, UniProt Q9P2N5 1-1060) MLIEDVDALKSWLAKLLEPICDADPSALANYVVALVKKDKPEKELKAFCADQLDVFLQKETSGFVDKLFESLYTKNYLPLLEPVKPEPKPLVQEKEEIKEEVFQEPAEEERDGRKKKYPSPQKTRSESSERRTREKKREDGKWRDYDRYYERNELYREKYDWRRGRSKSRSKSRGLSRSRSRSRGRSKDRDPNRNVEHRERSKFKSERNDLESSYVPVSAPPPNSSEQYSSGAQSIPSTVTVIAPAHHSENTTESWSNYYNNHSSSNSFGRNLPPKRRCRDYDERGFCVLGDLCQFDHGNDPLVVDEVALPSMIPFPPPPPGLPPPPPPGMLMPPMPGPGPGPGPGPGPGPGPGPGPGHSMRLPVPQGHGQPPPSVVLPIPRPPITQSSLINSRDQPGTSAVPNLASVGTRLPPPLPQNLLYTVSERQPMYSREHGAAASERLQLGTPPPLLAARLVPPRNLMGSSIGYHTSVSSPTPLVPDTYEPDGYNPEAPSITSSGRSQYRQFFSRTQTQRPNLIGLTSGDMDVNPRAANIVIQTEPPVPVSINSNITRVVLEPDSRKRAMSGLEGPLTKKPWLGKQGNNNQNKPGFLRKNQYTNTKLEVKKIPQELNNITKLNEHFSKFGTIVNIQVAFKGDPEAALIQYLTNEEARKAISSTEAVLNNRFIRVLWHRENNEQPTLQSSAQLLLQQQQTLSHLSQQHHHLPQHLHQQQVLVAQSAPSTVHGGIQKMMSKPQTSGAYVLNKVPVKHRLGHAGGNQSDASHLLNQSGGAGEDCQIFSTPGHPKMIYSSSNLKTPSKLCSGSKSHDVQEVLKKKQEAMKLQQDMRKKRQEVLEKQIECQKMLISKLEKNKNMKPEERANIMKTLKELGEKISQLKDELKTSSAVSTPSKVKTKTEAQKELLDTELDLHKRLSSGEDTTELRKKLSQLQVEAARLGILPVGRGKTMSSQGRGRGRGRGGRGRGSLNHMVVDHRPKALTVGGFIEEEKEDLLQHFSTANQGPKFKDRRLQISWHKPKVPSISTETEEEEVKEEETETSDLFLPDDDDEDEDEYESRSWRR
4 | binds | LUZP4 (endogenous) (protein, UniProt Q9P127 1-313) MASFRKLTLSEKVPPNHPSRKKVNFLDMSLDDIIIYKELEGTNAEEEKNKRQNHSKKESPSRQQSKAHRHRHRRGYSRCRSNSEEGNHDKKPSQKPSGFKSGQHPLNGQPLIEQEKCSDNYEAQAEKNQGQSEGNQHQSEGNPDKSEESQGQPEENHHSERSRNHLERSLSQSDRSQGQLKRHHPQYERSHGQYKRSHGQSERSHGHSERSHGHSERSHGHSERSHGHSKRSRSQGDLVDTQSDLIATQRDLIATQKDLIATQRDLIATQRDLIVTQRDLVATERDLINQSGRSHGQSERHQRYSTGKNTITT
5 | binds | SARNP (endogenous) (protein, UniProt P82979 1-210) MATETVELHKLKLAELKQECLARGLETKGIKQDLIHRLQAYLEEHAEEEANEEDVLGDETEEEETKPIELPVKEEEPPEKTVDVAAEKKVVKITSEIPQTERMQKRAERFNVPVSLESKKAARAARFGISSVPTKGLSSDNKPMVNLDKLKERAQRFGLNVSSISRKSEDDEKLKKRKERFGIVTSSAGTGTTEDTEAKKRKRAERFGIA

biological target: GFP-UAP56 (endogenously tagged EGFP-3C-DDX39B) (human (endogenous in K562)) (UniProt Q13838); experiment: affinity purification with mass spectrometry; remark: another data set of the same source

Row | binding | Molecule
6 | binds | PHAX (endogenous) (from UniProt Q9H814 1-394)

No constants are given. Whether binding was seen depends on the method and setting. Binding seen in cells or lysates may run through a third protein. These calls come from enrichment with a bait or labelling near it, and not all partners need be listed.
